Data published in patent publication EP2308983B1, “Cytochrome P450 from Rhizopus oryzae and uses thereof” (Univerza v Ljubljani, priority 2009, dated 2011).

System: R. oryzae
Assay: R. oryzae hydroxylation activity assay (mycelium, HPLC and LC/MS)
Type: cell-based
Details: 300 µM steroid, up to 2 h

Compound	extent of hydroxylation by the fungus compared to SpoC12	ratio between 11α- and 6β-hydroxylated derivative in the fungus compared to SpoC12
C[C@]12CC[C@H]3[C@@H](CCC4=CC(=O)CC[C@@]43C)[C@@H]1CC[C@@H]2C(=O)CO [DOC, 11-deoxycorticosterone]	much lesser extent than SpoC12	
C[C@]12CC[C@H]3[C@@H](CCC4=CC(=O)CC[C@@]43C)[C@@H]1CC[C@@H]2O [testosterone]		much higher as in SpoC12
